For one molecule, binding results are on record in US20260226131A1 (SHANGHAI INSTITUTE OF MATERIA MEDICA CHINESE ACADEMY OF …, published 2026).

Sequences of proteins named here, by UniProt entry; tags and fusion partners are left off. Residues count along the entry.
UniProt P08069, residues 31-932: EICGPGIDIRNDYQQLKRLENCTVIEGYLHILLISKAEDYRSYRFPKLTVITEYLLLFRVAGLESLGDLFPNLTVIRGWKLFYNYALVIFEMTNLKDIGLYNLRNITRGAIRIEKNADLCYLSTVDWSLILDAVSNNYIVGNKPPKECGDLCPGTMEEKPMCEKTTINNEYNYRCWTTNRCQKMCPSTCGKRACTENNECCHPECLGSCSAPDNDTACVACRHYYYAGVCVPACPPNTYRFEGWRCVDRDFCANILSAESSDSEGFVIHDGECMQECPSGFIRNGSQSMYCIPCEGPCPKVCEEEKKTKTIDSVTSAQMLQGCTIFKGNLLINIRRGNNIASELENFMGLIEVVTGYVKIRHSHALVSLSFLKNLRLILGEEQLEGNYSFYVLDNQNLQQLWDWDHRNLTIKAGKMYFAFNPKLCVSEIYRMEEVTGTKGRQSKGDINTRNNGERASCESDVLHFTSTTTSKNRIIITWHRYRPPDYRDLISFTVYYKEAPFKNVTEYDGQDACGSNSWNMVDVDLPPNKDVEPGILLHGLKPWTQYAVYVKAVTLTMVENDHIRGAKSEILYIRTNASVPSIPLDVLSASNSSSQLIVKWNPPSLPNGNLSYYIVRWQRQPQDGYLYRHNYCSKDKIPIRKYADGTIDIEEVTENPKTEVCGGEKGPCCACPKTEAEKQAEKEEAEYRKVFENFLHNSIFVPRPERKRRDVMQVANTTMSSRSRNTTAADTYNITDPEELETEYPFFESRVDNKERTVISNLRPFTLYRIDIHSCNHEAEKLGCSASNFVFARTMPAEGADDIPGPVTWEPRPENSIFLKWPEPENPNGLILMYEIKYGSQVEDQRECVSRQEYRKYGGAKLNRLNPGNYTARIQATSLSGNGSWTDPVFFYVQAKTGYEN

The assay has as its target IGF-1R-His tag (Sino Biological), human insulin-like growth factor 1 receptor (human) (UniProt P08069). The experiment in a line: BLI (Octet), IGF-1R-His captured on Ni-NTA probe. Background: In BLI a coated tip is dipped into the sample, and binding shifts an interference pattern.

These are yes or no findings as the source states them, for the method shown. Some entries that bind do so weakly or less than the wild type. Tags and fused reporters may be left off the sequences shown.

B1: Insulin-Fc fusion protein of Example 1 (B27E+A3-A+A21G) (Fc fusion)
chain: FVNQHLCGSHLVEALYLVCGERGFFYEPKTGGVGGGGIAEQCCTSICSLYQLENYCGGGGGSGGGGSGGGGSGGGGSERKSSVESPPSPAPPVAGPSVFLFPPKPKDTLMISRTPEVTCVVVDVSQEDPEVQFNWYVDGVEVHNAKTKPREEQFNSTFRVVSVLTVLHQDWLNGKEYKCKVSNKGLPSSIEKTISKTKGQPREPQVYTLPPSREEMTKNQVSLTCLVKGFYPSDIAVEWESNGQPENNYKTTPPMLDSDGSFFLYSKLTVDKSRWQQGNVFSCSVMHEALHNHYTQKSLSLSLG
Take B1: the binding result is reported as “binds”.
